Consider one molecule from patent US20140309404A1.

These are yes or no findings as the source states them, for the method shown. Binding calls can cover weak binding; strength is not graded here.

The assay addresses Cynomolgus monkey BMP-6 (cynomolgus monkey). In words: SPR (BIAcore), 37 C; said of Antibody I from the Fab data of Table 4. On the technique in general: Surface plasmon resonance follows binding to a sensor surface in real time, without labels.

B1: Antibody I (antibody, human IgG4 S228P, kappa, F234A L235A, V domains shown)
VH: QVQLVQSGAEVKKPGSSVKVSCKASGYTFTSYAMHWVRQAPGQGLEWMGYINPYNDGTKYNENFKGRVTITADESTSTAYMELSSLRSEDTAVYYCARRPFGNAMDIWGQGTLVTVSS
VL: DIQMTQSPSSLSASVGDRVTITCRSSENIYRNLAWYQQKPGKAPKLLIYAATNLADGVPSRFSGSGSGTDFTLTISSLQPEDFATYYCQGIWGTPLTFGGGTKVEIKR
For the molecule B1, the binding entry is reported as “binds”.
